From PMC12787490

Protein sequences, listed by entry. Tags and fused reporters are not part of them. Residues count along the entry.
UniProt P07288, 25-261: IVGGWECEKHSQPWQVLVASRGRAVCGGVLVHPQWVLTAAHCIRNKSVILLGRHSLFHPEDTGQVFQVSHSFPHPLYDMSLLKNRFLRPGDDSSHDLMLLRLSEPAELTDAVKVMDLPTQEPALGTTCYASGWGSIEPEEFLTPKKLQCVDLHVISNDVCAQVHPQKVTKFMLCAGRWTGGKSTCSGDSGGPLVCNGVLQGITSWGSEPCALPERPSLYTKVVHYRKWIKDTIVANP

Target: prostate-specific antigen (PSA) (human) (UniProt P07288)
Assay: binding assay
Conditions: 2 mM MgCl2, 0.02% Tween-20 in PBS pH 7.4 (original work); ELONA: PSA 250 ng/well adsorbed; aptamers 3.9-500 nM in PBS + 5 mM MgCl2, 1 h at 37 C; block 3% BSA + 100 nM ssDNA mix; wash PBS 0.05% Tween-20; commercial protein; folded or branched DNA

“GGGCGGGGCGGACGAGACAGTAAGGGCTGTGGGTGTGGTG [AS2]” gave a Kd of 0.7 pM.

The exact form of at least one protein or probe is not confirmed.
